No constants are given. Whether binding was seen depends on the method and setting. Binding seen in cells or lysates may run through a third protein. Some results given as binding are weak or reduced against the parent protein; the word gives no strength.

Chains of the proteins cited; added tags and fusions are not shown. Lines headed by an entry give the natural chain unless they say otherwise; changes in a name come on top.
UniProt P31749: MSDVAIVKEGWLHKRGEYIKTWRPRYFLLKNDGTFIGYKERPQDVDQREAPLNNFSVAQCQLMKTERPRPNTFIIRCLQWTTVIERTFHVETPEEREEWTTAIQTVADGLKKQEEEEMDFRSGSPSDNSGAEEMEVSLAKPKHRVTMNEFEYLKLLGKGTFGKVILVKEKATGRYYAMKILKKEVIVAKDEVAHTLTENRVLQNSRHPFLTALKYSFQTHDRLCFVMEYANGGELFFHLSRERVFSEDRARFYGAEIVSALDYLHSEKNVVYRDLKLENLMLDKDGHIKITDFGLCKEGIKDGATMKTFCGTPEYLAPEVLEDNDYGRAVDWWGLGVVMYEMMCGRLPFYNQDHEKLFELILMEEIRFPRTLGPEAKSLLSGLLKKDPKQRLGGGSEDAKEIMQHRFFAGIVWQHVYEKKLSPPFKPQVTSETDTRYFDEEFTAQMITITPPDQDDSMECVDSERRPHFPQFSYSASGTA

The target in assay [1] is T1, PPP2R2A, regulatory subunit (PP2A B) of the PP2A holoenzyme (human (endogenous in MCF-10A)) (UniProt P63151).
T1 sequence: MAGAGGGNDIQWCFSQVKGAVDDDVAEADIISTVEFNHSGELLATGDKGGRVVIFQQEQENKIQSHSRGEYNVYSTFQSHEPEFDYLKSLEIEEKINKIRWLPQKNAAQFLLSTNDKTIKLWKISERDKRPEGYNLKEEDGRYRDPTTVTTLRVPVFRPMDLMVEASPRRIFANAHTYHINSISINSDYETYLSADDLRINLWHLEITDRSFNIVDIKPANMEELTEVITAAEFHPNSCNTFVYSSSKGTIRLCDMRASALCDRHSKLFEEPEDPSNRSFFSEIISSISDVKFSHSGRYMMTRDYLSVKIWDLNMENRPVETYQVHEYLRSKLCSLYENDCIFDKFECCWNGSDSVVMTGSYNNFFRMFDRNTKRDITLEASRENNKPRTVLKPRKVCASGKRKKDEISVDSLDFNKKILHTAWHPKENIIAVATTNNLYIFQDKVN
Description: co-IP; MCF-10A AKT1^E17K cells, control and SVIL-AS1 knockdown; IP with PPP2R2A antibody and reciprocal IP with AKT1 antibody, followed by western blot.

Assay [2] has as its target AKT1 of MCF-10A AKT1^E17K knock-in cells (human (endogenous in MCF-10A AKT1^E17K)) (UniProt P31749). The description is as above.

For the molecule “AKT1 of MCF-10A AKT1^E17K knock-in cells (from UniProt P31749 1-480) (enzyme)”, the binding entry in assay [1] was “binds”.

B1: PPP2R2A, regulatory subunit (PP2A B) of the PP2A holoenzyme (protein, UniProt P63151 1-447)
chain: MAGAGGGNDIQWCFSQVKGAVDDDVAEADIISTVEFNHSGELLATGDKGGRVVIFQQEQENKIQSHSRGEYNVYSTFQSHEPEFDYLKSLEIEEKINKIRWLPQKNAAQFLLSTNDKTIKLWKISERDKRPEGYNLKEEDGRYRDPTTVTTLRVPVFRPMDLMVEASPRRIFANAHTYHINSISINSDYETYLSADDLRINLWHLEITDRSFNIVDIKPANMEELTEVITAAEFHPNSCNTFVYSSSKGTIRLCDMRASALCDRHSKLFEEPEDPSNRSFFSEIISSISDVKFSHSGRYMMTRDYLSVKIWDLNMENRPVETYQVHEYLRSKLCSLYENDCIFDKFECCWNGSDSVVMTGSYNNFFRMFDRNTKRDITLEASRENNKPRTVLKPRKVCASGKRKKDEISVDSLDFNKKILHTAWHPKENIIAVATTNNLYIFQDKVN
On to B1, for which the binding result in assay [2] is “binds”.

Source of the values: publication PMC12097031.
